Source: the supplement of paper PMC10849652
The other results are listed elsewhere or left out.

The chains behind the UniProt entries cited, without tags or fusion partners. Where a name states a change or a piece, a line headed by the entry shows the natural chain unless it says otherwise.
UniProt Q8N2K1: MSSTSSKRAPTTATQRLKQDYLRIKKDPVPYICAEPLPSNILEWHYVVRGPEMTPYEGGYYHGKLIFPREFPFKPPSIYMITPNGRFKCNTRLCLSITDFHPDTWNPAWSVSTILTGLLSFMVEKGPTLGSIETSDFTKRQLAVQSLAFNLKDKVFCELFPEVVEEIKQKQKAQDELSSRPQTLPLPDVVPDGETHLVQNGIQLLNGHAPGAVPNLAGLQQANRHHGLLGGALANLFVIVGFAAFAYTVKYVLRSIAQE
UniProt Q96N46: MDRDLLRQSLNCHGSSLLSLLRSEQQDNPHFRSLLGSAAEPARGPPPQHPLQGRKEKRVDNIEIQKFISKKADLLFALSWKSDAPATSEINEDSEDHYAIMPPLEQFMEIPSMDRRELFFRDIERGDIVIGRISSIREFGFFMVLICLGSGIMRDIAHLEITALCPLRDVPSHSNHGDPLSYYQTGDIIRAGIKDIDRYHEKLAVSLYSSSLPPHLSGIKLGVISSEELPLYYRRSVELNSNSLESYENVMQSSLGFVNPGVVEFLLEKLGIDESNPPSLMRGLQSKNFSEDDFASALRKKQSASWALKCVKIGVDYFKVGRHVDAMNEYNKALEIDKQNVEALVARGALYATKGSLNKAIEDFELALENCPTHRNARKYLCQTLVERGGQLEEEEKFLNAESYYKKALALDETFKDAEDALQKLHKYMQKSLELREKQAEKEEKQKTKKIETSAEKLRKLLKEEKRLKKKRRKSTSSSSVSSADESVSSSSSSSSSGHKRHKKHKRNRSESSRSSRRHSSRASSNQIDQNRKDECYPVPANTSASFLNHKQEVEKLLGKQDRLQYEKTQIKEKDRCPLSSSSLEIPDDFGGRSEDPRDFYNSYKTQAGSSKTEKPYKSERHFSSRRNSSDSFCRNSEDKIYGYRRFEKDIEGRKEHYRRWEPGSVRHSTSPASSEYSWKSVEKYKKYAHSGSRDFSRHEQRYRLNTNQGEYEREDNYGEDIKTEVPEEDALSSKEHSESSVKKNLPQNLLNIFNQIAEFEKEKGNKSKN
UniProt Q9H6E5: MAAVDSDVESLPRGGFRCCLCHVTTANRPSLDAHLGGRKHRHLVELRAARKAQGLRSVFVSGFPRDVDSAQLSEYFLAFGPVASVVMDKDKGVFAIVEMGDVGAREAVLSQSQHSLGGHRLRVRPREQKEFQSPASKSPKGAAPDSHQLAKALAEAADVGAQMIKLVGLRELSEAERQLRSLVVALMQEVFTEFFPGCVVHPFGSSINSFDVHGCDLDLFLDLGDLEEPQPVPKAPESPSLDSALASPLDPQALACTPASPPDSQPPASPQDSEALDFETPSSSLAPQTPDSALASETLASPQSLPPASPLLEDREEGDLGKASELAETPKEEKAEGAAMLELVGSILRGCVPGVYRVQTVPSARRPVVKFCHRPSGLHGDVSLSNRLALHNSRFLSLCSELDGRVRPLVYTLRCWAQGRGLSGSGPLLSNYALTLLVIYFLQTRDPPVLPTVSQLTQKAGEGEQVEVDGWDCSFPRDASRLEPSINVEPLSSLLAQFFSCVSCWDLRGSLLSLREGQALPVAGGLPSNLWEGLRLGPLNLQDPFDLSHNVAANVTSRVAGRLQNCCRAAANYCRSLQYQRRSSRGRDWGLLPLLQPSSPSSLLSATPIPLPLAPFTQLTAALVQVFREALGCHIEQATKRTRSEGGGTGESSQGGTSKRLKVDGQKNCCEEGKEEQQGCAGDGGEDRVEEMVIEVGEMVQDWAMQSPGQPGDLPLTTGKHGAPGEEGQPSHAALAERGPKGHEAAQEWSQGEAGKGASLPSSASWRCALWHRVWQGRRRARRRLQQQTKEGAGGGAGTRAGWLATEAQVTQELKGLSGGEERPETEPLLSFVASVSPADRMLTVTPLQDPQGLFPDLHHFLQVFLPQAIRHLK
UniProt O14817: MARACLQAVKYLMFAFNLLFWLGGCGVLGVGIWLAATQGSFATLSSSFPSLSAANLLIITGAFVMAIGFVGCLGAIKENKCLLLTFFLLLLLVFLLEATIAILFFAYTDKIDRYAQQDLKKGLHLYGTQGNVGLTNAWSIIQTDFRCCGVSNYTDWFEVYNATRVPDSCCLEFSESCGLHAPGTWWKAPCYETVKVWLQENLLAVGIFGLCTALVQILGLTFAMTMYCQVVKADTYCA
UniProt Q16881, whole entry, looked up: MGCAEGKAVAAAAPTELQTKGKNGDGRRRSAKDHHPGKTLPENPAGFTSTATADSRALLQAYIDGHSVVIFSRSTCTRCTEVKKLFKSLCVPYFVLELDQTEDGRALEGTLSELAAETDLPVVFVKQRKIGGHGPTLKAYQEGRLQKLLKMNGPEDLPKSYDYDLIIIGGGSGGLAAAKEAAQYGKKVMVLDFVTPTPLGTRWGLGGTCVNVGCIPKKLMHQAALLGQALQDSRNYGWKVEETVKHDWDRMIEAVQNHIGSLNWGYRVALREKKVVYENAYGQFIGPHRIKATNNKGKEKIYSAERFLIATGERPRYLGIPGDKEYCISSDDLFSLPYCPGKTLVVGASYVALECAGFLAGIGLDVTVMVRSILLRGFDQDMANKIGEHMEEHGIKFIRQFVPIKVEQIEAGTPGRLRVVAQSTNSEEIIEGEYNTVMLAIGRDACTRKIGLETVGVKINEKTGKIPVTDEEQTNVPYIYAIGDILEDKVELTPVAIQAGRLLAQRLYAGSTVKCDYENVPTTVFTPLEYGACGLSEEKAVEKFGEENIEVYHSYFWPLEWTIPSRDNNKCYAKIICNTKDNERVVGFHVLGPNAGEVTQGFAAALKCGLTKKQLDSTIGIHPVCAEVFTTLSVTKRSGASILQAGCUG
UniProt Q96RT8, whole entry, looked up: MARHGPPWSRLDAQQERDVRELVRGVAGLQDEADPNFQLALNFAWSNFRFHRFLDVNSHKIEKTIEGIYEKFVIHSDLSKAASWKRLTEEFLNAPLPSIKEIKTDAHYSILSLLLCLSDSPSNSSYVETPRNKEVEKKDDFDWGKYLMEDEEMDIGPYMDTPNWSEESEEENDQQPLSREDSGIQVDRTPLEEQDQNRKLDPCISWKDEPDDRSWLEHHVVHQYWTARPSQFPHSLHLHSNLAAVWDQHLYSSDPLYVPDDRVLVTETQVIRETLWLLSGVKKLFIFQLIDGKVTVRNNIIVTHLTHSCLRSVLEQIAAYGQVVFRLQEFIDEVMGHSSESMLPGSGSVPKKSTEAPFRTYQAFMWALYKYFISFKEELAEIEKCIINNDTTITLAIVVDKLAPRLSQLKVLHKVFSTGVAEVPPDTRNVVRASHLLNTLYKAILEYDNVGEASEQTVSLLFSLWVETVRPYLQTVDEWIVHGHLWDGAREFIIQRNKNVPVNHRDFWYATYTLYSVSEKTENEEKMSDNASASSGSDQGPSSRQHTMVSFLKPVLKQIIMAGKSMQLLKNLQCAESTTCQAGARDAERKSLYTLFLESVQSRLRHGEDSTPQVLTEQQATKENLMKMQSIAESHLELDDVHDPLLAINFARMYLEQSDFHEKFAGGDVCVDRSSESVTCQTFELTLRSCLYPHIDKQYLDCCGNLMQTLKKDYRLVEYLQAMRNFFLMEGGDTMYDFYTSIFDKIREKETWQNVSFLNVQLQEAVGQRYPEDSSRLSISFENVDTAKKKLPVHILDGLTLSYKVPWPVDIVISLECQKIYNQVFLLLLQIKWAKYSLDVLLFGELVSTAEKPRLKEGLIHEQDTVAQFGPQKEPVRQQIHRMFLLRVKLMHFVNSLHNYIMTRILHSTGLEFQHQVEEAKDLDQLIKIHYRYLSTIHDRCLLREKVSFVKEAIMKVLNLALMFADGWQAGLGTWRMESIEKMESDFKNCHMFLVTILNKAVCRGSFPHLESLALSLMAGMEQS
UniProt Q96RR1: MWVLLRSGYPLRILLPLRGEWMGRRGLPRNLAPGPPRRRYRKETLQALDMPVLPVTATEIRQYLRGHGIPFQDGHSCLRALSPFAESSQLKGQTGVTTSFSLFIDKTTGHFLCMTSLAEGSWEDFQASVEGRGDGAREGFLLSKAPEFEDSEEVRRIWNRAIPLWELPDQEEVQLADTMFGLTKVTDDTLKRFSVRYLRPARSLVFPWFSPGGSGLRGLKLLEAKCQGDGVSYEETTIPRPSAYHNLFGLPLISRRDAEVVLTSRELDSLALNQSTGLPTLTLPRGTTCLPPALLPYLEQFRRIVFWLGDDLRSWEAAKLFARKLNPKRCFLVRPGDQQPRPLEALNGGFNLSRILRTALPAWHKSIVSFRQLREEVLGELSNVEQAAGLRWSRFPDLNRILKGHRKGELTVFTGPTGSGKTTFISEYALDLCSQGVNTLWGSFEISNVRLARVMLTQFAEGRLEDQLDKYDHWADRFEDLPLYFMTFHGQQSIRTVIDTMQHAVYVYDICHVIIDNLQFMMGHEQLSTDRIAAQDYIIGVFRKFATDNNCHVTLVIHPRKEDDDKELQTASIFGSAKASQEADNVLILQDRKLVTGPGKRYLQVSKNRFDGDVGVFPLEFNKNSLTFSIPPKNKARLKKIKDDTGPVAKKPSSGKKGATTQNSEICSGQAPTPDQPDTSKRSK
UniProt Q6PGP7, whole entry, looked up: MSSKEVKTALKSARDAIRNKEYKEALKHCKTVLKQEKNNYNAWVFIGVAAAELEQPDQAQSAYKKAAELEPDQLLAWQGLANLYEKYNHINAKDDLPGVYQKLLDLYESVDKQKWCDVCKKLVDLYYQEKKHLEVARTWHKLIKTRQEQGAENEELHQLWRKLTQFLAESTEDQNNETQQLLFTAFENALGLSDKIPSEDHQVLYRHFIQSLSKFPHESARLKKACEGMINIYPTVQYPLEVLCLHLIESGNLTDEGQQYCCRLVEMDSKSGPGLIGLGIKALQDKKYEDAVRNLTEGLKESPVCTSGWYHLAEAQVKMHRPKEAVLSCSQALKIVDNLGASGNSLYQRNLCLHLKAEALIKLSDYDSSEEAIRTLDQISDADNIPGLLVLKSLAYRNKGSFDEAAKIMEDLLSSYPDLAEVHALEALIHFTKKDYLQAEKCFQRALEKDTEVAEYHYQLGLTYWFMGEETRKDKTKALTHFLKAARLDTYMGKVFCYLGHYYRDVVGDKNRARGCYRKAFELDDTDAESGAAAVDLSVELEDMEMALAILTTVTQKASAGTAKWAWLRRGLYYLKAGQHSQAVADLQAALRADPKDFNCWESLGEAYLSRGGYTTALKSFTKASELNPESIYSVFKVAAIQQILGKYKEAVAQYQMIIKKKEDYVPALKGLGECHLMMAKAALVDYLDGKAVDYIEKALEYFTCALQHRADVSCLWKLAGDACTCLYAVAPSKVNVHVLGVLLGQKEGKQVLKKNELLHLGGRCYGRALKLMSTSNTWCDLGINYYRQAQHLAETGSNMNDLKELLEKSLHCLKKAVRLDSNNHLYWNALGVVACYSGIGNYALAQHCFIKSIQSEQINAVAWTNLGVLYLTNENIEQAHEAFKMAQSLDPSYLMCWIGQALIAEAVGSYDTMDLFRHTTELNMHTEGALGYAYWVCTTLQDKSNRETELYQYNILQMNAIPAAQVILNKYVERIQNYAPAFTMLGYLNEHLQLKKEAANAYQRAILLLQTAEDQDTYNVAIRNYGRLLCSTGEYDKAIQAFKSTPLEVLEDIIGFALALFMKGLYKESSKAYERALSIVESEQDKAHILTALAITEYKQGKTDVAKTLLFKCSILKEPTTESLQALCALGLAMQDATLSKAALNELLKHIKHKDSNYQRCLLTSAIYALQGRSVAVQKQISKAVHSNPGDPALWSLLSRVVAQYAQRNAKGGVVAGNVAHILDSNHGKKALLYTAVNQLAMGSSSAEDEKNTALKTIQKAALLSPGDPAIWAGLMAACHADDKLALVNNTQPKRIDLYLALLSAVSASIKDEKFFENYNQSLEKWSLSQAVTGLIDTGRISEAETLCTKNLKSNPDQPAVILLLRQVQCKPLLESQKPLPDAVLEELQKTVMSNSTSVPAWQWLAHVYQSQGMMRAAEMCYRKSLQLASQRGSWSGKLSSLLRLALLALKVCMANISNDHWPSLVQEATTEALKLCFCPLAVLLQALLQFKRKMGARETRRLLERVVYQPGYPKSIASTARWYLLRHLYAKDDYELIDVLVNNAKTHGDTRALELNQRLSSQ
UniProt Q3B726, whole entry, looked up: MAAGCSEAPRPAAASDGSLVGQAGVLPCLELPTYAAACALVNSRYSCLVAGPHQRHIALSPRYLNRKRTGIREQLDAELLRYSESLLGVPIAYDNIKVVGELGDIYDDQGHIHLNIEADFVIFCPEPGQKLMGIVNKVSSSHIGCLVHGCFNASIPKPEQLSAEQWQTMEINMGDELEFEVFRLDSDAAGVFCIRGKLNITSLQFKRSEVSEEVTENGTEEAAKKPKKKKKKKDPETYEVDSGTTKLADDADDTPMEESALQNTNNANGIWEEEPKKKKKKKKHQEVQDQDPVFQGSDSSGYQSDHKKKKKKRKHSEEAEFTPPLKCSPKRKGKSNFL
UniProt O75896: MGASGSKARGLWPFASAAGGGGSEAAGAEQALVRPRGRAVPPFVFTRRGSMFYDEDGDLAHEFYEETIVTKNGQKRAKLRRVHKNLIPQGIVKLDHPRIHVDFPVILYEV

Compound: CCN(CCCOc1ccc2c(Nc3cc(CC(=O)Nc4cccc(F)c4)[nH]n3)ncnc2c1)CCOP(=O)(O)O [barasertib]
Assay: log2 fold change, soluble protein after heating vs DMSO (PISA); higher = thermal stabilisation; K562 cells, 10 uM, 30 min; active = over 0.2 and 3.5 SD of the protein, either way, in both replicates (recomputed)
In short: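 K562 cells (2×10^6 cells/mL) were treated with 10 μM compound for 30 min, and aliquots were heated for 3 min over 48°C-58°C. Pooled aliquots were extracted in PBS with 0.5% NP-40 at 4°C, and the supernatant after 21,000xg for 90 min was measured by TMTpro 16plex LC-MS/MS with channel sums equalised. Reported thermal stability, relative to control samples and from duplicates, is a log2 fold change.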

log2 fold change, inactive:
TTC26 -0.139
UBE2J2 isoform 3 (UniProt Q8N2K1) 0.006
TTC14 (UniProt Q96N46) 0.114
TYRO3 (UniProt Q06418) -0.024
TUT1 (UniProt Q9H6E5) 0.091
UBAP2L (UniProt F8W726) -0.058
TSPAN4 (UniProt O14817) 0.231
TYK2 (UniProt P29597) -0.237
TXNRD1 isoform 7 (UniProt Q16881) 0.041
TUBGCP5 (UniProt Q96RT8) 0.07
U2AF1L5 (UniProt P0DN76) -0.127
TWNK (UniProt Q96RR1) -0.063
TTC37 (UniProt Q6PGP7) 0.078
TWISTNB (UniProt Q3B726) -0.057
TUSC2 (UniProt O75896) -0.021
TUBA4A (UniProt C9JJQ8) 0.136

Two records picked at random from the list so far, as already listed:
log2 fold change, inactive:
TTC26 -0.139
TTC14 (UniProt Q96N46) 0.114
